Results deposited as PubChem BioAssay AID1053209 (Peter MacCallum Cancer Centre, 2014).
The deposit covers about 1,580 reagents; this is a random part of them. 207 of them (13%) were called active. 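Rows are single siRNAs; four siRNAs per gene were tested, a gene counting as confirmed only when at least two agree.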 Unmarked entries are inactive. Reagents against one gene are numbered here. Further read-outs or replicates are left out here.

- Test: 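Gene losses that combine with doxorubicin to kill mouse bone cancer cells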 (follow-up of hits)
- Cell system: mouse primary osteosarcoma cells
- Reagents: single siRNA against mouse genes, 25 nM (text also states 40 nM)
- Duration: about 120 h (48 h before drug, then 72 h with drug)
- Challenge: doxorubicin 100 nM (about IC30-40), added 48 h after transfection, for 72 h
- Read-out: 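ATP-based luminescent viability, with or without doxorubicin, relative to non-targeting control NT1, mean of two replicates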
- Scale: viability with doxorubicin, vs NT1: higher = more viable cells under doxorubicin; viability without drug, vs NT1: higher = more viable cells without drug
- Rule for the call: 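Counted as active (class LC dox) if viability falls to 0.7 of NT1 or below under doxorubicin but stays within 0.7 to 1.1 without drug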

Depletion of Rps16 (ribosomal protein S16) #1 resulted in: combined effect class low viability with and without drug; viability with doxorubicin, vs NT1 = 0.31; viability without drug, vs NT1 = 0.41.
For Rps16 (ribosomal protein S16) #2 the deposit lists combined effect class low viability with and without drug; viability with doxorubicin, vs NT1 = 0.4; viability without drug, vs NT1 = 0.57.
After knock-down of Rps16 (ribosomal protein S16) #3, the record shows combined effect class low viability with and without drug; viability with doxorubicin, vs NT1 = 0.26; viability without drug, vs NT1 = 0.47.
Rps16 (ribosomal protein S16) #4 scored combined effect class normal viability with and without drug; viability with doxorubicin, vs NT1 = 0.8; viability without drug, vs NT1 = 0.9.
For Hspa9 (heat shock protein family A (Hsp70) member 9) #1 the deposit lists combined effect class low viability with and without drug; viability with doxorubicin, vs NT1 = 0.48; viability without drug, vs NT1 = 0.6.
Silencing of Hspa9 (heat shock protein family A (Hsp70) member 9) #2 gave: combined effect class low viability with and without drug; viability with doxorubicin, vs NT1 = 0.38; viability without drug, vs NT1 = 0.63.
Hspa9 (heat shock protein family A (Hsp70) member 9) #3 gave combined effect class low viability with and without drug; viability with doxorubicin, vs NT1 = 0.45; viability without drug, vs NT1 = 0.48.
Hspa9 (heat shock protein family A (Hsp70) member 9) #4 showed combined effect class normal viability with and without drug; viability with doxorubicin, vs NT1 = 0.9; viability without drug, vs NT1 = 0.98.
After knock-down of Chmp1a (charged multivesicular body protein 1A) #1, the screen gave combined effect class normal viability with and without drug; viability with doxorubicin, vs NT1 = 0.9; viability without drug, vs NT1 = 0.97.
Silencing of Chmp1a (charged multivesicular body protein 1A) #2 came out at: combined effect class low viability with and without drug; viability with doxorubicin, vs NT1 = 0.42; viability without drug, vs NT1 = 0.6.
Depletion of Chmp1a (charged multivesicular body protein 1A) #3 resulted in: combined effect class normal viability with and without drug; viability with doxorubicin, vs NT1 = 0.94; viability without drug, vs NT1 = 1.01.
For Chmp1a (charged multivesicular body protein 1A) #4, the values are combined effect class normal viability with and without drug; viability with doxorubicin, vs NT1 = 0.86; viability without drug, vs NT1 = 0.84.
With knock-down of Rnf121 (ring finger protein 121) #1 the results were combined effect class normal viability with and without drug; viability with doxorubicin, vs NT1 = 0.83; viability without drug, vs NT1 = 1.01.
Knock-down of Rnf121 (ring finger protein 121) #2 resulted in: combined effect class high viability only with doxorubicin; viability with doxorubicin, vs NT1 = 1.12; viability without drug, vs NT1 = 1.
Knock-down of Rnf121 (ring finger protein 121) #3 came out at: combined effect class normal viability with and without drug; viability with doxorubicin, vs NT1 = 0.86; viability without drug, vs NT1 = 0.92.
After knock-down of Rnf121 (ring finger protein 121) #4, the screen gave combined effect class normal viability with and without drug; viability with doxorubicin, vs NT1 = 1.06; viability without drug, vs NT1 = 1.02.

2 of these entries, reformatted:
gene symbol | reagent | combined effect class | viability with doxorubicin, vs NT1 | viability without drug, vs NT1
Chmp1a (charged multivesicular body protein 1A) | 4 | normal viability with and without drug | 0.86 | 0.84
Rnf121 (ring finger protein 121) | 1 | normal viability with and without drug | 0.83 | 1.01
